Data from article PMC6948969.

Chains of the proteins cited; added tags and fusions are not shown. Residues count along the entry.
UniProt P02769, 25-607: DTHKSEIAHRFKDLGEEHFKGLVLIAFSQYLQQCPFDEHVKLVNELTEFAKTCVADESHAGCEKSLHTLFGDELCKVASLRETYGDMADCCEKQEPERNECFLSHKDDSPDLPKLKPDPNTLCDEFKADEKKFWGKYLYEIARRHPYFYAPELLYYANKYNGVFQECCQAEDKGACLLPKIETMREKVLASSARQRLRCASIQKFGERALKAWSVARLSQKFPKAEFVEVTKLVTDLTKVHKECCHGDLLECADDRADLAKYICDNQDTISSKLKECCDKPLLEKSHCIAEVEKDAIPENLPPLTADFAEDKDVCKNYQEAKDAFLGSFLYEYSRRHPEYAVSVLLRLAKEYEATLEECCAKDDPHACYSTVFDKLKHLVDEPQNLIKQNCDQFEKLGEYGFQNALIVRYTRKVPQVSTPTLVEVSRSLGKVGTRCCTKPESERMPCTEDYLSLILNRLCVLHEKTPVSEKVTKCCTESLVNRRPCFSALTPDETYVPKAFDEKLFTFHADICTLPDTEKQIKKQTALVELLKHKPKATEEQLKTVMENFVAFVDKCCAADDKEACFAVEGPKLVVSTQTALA

Key:
[1] = target: T1, Xyr1 (Xylanase regulator 1) (UniProt G0RLE8); assay: competition with a labelled probe; details: equimolar unlabelled XRE does not weaken shift of XBS probe; EMSA/RNA-EMSA: 10 mM Tricine, 50 mM NaCl, pH 7.4, 22 C, 10 min; gel 0.5x TBE, 4 C; recombinant protein
T1 sequence (looked up, limits assumed): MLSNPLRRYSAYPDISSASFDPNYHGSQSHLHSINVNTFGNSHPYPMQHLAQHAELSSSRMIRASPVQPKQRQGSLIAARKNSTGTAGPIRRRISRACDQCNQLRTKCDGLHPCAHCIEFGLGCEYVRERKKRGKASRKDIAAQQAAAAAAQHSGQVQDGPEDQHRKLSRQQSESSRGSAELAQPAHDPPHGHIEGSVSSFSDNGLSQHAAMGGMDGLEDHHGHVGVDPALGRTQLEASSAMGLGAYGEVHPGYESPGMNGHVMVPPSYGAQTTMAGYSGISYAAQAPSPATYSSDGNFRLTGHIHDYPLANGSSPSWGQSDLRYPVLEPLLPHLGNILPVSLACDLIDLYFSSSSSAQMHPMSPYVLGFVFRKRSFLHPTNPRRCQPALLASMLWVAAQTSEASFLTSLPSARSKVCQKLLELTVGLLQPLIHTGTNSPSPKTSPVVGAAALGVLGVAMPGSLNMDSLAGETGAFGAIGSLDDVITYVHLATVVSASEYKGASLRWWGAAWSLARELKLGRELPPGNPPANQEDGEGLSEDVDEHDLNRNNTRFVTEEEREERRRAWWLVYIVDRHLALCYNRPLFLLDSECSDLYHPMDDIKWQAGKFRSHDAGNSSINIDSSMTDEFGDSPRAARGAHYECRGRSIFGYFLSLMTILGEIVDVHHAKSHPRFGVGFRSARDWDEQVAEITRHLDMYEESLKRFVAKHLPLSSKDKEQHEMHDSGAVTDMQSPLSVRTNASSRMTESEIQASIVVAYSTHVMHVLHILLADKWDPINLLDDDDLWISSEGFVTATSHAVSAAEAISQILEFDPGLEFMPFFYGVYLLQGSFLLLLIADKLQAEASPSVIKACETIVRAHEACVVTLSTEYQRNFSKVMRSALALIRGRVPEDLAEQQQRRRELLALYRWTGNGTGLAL

[2] = target: BSA (UniProt P02769); assay: EMSA; details: 8-fold molar excess BSA; EMSA/RNA-EMSA: 10 mM Tricine, 50 mM NaCl, pH 7.4, 22 C, 10 min; gel 0.5x TBE, 4 C; commercial protein

CACTGGATACCTACCTAGGTAGTCTGCAGCAGAAG (double strand) [XRE probe (xyr1 promoter)]
binding result [1]: binds more weakly
binding result [2]: no binding

For some assays here: No signal at the amounts used counts as a negative. For some assays here: For at least one entry, the source does not settle the construct or the ends of the probe. For some assays here: A weaker result is weaker than the reference pair of the same experiment. For some assays here: Where a protein sequence is shown, tags need not be part of it.
